According to paper PMC8042443:
Results are given in words; binding and its absence hold for the method and conditions named. In cells and extracts the contact can be indirect. Some binding calls cover weakened binding; strength is not graded here. Tags and fused reporters may be left off the sequences shown.

Amino acid sequences for entries named in this document (tags omitted).
UniProt Q13574: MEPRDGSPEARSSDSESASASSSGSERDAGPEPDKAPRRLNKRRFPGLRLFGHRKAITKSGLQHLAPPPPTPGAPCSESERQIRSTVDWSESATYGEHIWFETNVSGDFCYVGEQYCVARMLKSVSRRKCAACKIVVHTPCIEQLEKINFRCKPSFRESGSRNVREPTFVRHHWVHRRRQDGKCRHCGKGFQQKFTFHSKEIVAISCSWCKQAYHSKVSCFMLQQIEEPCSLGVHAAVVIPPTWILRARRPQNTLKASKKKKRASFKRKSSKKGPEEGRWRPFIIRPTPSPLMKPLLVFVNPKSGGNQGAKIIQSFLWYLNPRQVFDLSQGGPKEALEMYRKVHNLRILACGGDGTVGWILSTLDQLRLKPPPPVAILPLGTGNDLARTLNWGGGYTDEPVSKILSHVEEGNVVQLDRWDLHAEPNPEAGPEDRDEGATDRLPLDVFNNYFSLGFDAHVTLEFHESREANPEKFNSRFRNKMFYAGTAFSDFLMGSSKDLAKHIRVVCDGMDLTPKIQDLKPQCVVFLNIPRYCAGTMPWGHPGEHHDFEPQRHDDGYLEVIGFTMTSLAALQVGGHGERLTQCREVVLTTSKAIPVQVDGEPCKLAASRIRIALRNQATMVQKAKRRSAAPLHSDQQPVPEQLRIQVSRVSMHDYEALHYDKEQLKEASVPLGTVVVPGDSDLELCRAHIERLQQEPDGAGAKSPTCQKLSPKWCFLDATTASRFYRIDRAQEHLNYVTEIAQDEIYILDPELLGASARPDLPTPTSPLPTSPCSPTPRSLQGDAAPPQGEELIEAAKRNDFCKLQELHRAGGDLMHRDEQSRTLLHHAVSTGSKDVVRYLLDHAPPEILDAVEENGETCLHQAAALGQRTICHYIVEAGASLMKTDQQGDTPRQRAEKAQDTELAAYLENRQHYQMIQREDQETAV

Target: T1, GST fusion protein of the α1-syntrophin PDZ domain (UniProt Q61234)
T1 sequence: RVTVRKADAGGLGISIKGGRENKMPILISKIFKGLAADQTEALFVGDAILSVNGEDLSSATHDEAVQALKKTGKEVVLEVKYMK
Test: pull-down; GST fusion proteins immobilised on beads, incubated 1 to 2 h at 4 °C with lysates of MEFs expressing HA-tagged DGKζ constructs; washed at least four times with ice-cold lysis buffer; bound DGKζ detected by anti-HA immunoblot; in some panels cells were treated with vehicle, 100 nM PMA, or 1 μM Gö6976 before PMA; only the target purified

binding: binds
Substance: HA-tagged wild-type diacylglycerol kinase ζ (from UniProt Q13574 1-928) (enzyme)
